Assay results: the supplement of paper PMC10331698
± gives the standard deviation of the averaged measurements. Small differences around the control level are noise.

Key:
Test in all cases: level (log10 ratio to DMSO vehicle control); higher = higher biomarker level / cell amount than vehicle control
[1] = compound: C=CC(=O)OCC(F)(F)C(F)(F)C(F)(F)C(F)(F)C(F)(F)C(F)(F)C(F)(F)C(F)F [1H,1H,9H-Perfluorononyl acrylate]; settings: 2200 nM; in DMSO
Protocol: (§1)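 BioMAP Diversity Plus panel of 12 human primary cell co-culture systems (3C, 4H, LPS, SAg, BT, BF4T, BE3C, CASM3C, HDF3CGF, KF3CT, MyoF, Mphg). Compounds were added 1 h before stimulation and left for 24 h (MyoF 48 h; BT 72 h for soluble read-outs or 6 d for IgG). Biomarkers were read by ELISA, cytotoxicity by SRB, PBMC viability and proliferation by Alamar Blue. Each well value was divided by the mean of 8 DMSO control wells on the same plate and log10 transformed; duplicate blinded samples were tested at 4 concentrations.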

[2] = compound: O=C(O)C(F)(F)OC(F)(F)C(F)(F)OC(F)(F)C(F)(F)OC(F)(F)C(F)(F)C(F)(F)C(F)(F)F [Perfluoro-3,6,9-trioxatridecanoic acid]; settings: 2200 nM; in DMSO
Protocol: as §1

[3] = compound: FC(F)(F)C(F)(F)C(F)(F)C(F)(F)C(F)(F)C(F)(F)C(F)(F)C(F)(F)CCS [2-(Perfluorooctyl)ethanthiol]; settings: in DMSO
Protocol: as §1

[4] = compound: O=C(O)C(F)(F)OC(F)(F)C(F)(F)OC(F)(F)F [Perfluoro-3,6-dioxaheptanoic acid]; settings: 2200 nM; in DMSO
Protocol: as §1

[5] = compound: O=C(O)CCC(F)(C(F)(F)F)C(F)(F)F [4,4-bis(Trifluoromethyl)-4-fluoropropanoic acid]; settings: 2200 nM; in DMSO
Protocol: as §1

[6] = compound: N=C(N)C(F)(F)C(F)(F)C(F)(F)C(F)(F)C(F)(F)C(F)(F)C(F)(F)F [Perfluorooctanamidine]; settings: in DMSO
Protocol: as §1

[7] = compound: O=C(O)C(F)(F)C(F)(F)C(F)(F)C(F)(F)C(F)(F)C(F)(F)C(F)(F)F [Ammonium perfluorooctanoate]; settings: 2200 nM; in DMSO
Protocol: as §1

[8] = compound: CCOC(=O)CC(=O)C(F)(F)C(F)(F)F [Ethyl pentafluoropropionyl acetate]; settings: 2200 nM; in DMSO
Protocol: as §1

[9] = compound: O=C(CC(=O)C(F)(F)C(F)(F)C(F)(F)F)c1cccs1 [(Perfluorobutyryl)-2-thenoylmethane]; settings: 2200 nM; in DMSO
Protocol: as §1

[10] = compound: O=C(O)C(F)(F)C(F)(F)C(F)(F)C(F)(F)C(F)(F)C(F)(F)C(F)(F)C(F)(F)F [Perfluorononanoic acid]; settings: 2200 nM; in DMSO
Protocol: as §1

[11] = compound: O=C(O)C(F)(F)C(F)(F)C(F)(F)C(F)(F)C(F)(F)C(F)(F)C(F)(F)F [Perfluorooctanoic acid]; settings: 2200 nM; in DMSO
Protocol: as §1

[12] = compound: OCC(F)(F)OC(F)(F)C(F)(F)OC(F)(F)C(F)(F)OC(F)(F)CO [1H,1H,11H,11H-Perfluorotetraethylene glycol]; settings: 2200 nM; in DMSO
Protocol: as §1

[13] = compound: O=C(O)C(F)(F)C(F)(F)C(F)(F)C(F)(F)C(F)(F)C(F)(F)C(F)(F)C(F)(F)C(F)(F)F [Perfluorodecanoic acid]; settings: in DMSO
Protocol: as §1

[14] = compound: OCC(F)(F)C(F)(F)C(F)(F)C(F)(F)C(F)(F)C(F)(F)C(F)(F)C(F)(F)CO [1H,1H,10H,10H-Perfluorodecane-1,10-diol]; settings: 2200 nM; in DMSO
Protocol: as §1

Test System	level (log10) [1]	level (log10) [2]	level (log10) ([3]; 740 nM)	level (log10) ([3]; 2200 nM)	level (log10) [4]	level (log10) [5]	level (log10) ([6]; 2200 nM)	level (log10) ([6]; 6700 nM)	level (log10) ([6]; 20000 nM)	level (log10) ([6]; 60000 nM)	level (log10) [7]	level (log10) [8]	level (log10) [9]	level (log10) [10]	level (log10) [11]	level (log10) [12]	level (log10) ([13]; 2200 nM)	level (log10) ([13]; 6700 nM)	level (log10) ([13]; 20000 nM)	level (log10) [14]
BE3C:HLA-DR	-0.009 ± 0.017	-0.019 ± 0.011	0.001 ± 0.0085	-0.0055 ± 0.0078	-0.0125 ± 0.057	0 ± 0.0057	0.01 ± 0.021	-0.0015 ± 0.018	-0.003 ± 0.021	-0.01	-0.016 ± 0.0042	-0.011 ± 0.025	-0.0035 ± 0.012	-0.036 ± 0.027	0.009 ± 0.044	-0.0035 ± 0.019	-0.015	-0.0525 ± 0.022	-0.842 ± 0.04	-0.0095 ± 0.016
lMphg:sIL-10	-0.024 ± 0.072	0.063 ± 0.0085	0.037 ± 0.057	0.009 ± 0.021	-0.004 ± 0.023	-0.0885 ± 0.091	-0.034 ± 0.013	-0.051 ± 0.018	-0.118 ± 0.0057	-0.121	-0.0725 ± 0.067	-0.041 ± 0.028	0.0165 ± 0.005	0.0005 ± 0.039	0.0195 ± 0.0035	-0.061 ± 0.052	-0.007 ± 0.059	-0.018 ± 0.055	-0.036 ± 0.028	-0.0115 ± 0.011
BE3C:uPA	-0.011 ± 0.048	0.0175 ± 0.0078	0.0055 ± 0.0035	-0.0045 ± 0.00071	-0.047 ± 0.071	-0.013 ± 0.016	-0.0055 ± 0.013	-0.008 ± 0.011	-0.0095 ± 0.0078	0.004	0.0065 ± 0.0035	-0.015 ± 0.023	0.016 ± 0.0071	-0.047 ± 0.033	0.0105 ± 0.021	-0.0005 ± 0.018	-0.02 ± 0.02	-0.0025 ± 0.011	-0.38 ± 0.0099	-0.0035 ± 0.026
BF4T:uPA	0.019 ± 0.0085	0.0105 ± 0.012	-0.013 ± 0.067	-0.0445 ± 0.005	-0.0205 ± 0.025	0.0035 ± 0.019	0.011 ± 0.016	-0.0185 ± 0.005	-0.0225 ± 0.011	0.05	0.0015 ± 0.0078	-0.012 ± 0.021	-0.05 ± 0.013	-0.0235 ± 0.0092	-0.0195 ± 0.029	0.008 ± 0.0042	0.011 ± 0.017	0.015 ± 0.011	-0.235 ± 0.043	-0.007 ± 0.051
BF4T:CD90	0.003 ± 0.013	0.0035 ± 0.011	0.008 ± 0.0028	-0.009 ± 0.0028	-0.008 ± 0.0042	-0.004 ± 0.028	0.0125 ± 0.015	0.0025 ± 0.015	-0.0115 ± 0.005	0.042	0.0005 ± 0.0078	-0.0145 ± 0.026	-0.0005 ± 0.0064	-0.022 ± 0.0085	0.0005 ± 0.026	-0.0025 ± 0.0092	0.0105 ± 0.0021	0.003 ± 0.0042	-0.0955 ± 0.0064	-0.013 ± 0.0028
BE3C:IL-1alpha	-0.014 ± 0.0042	0.0125 ± 0.012	-0.026 ± 0.027	-0.0185 ± 0.013	-0.0325 ± 0.05	0.011 ± 0.041	0.012 ± 0.02	0.0065 ± 0.026	0.002 ± 0.0028	0.047	-0.002 ± 0.021	0.0065 ± 0.064	0.0035 ± 0.012	-0.0095 ± 0.037	0.0225 ± 0.021	0.016 ± 0.0085	-0.013 ± 0.0099	-0.0245 ± 0.00071	-0.811 ± 0.055	0.0255 ± 0.0064
LPS:SRB	0.006 ± 0.0014	0.004 ± 0.013	0.004 ± 0.025	0.0025 ± 0.0064	-0.0045 ± 0.0021	0.0055 ± 0.019	-0.008 ± 0.0042	-0.005 ± 0.0085	0.006 ± 0.011	-0.035	-0.004 ± 0.011	0.007 ± 0.0071	-0.003 ± 0.0014	0.0075 ± 0.0064	-0.007 ± 0.0057	0.002 ± 0.0071	0.011 ± 0.0071	0.01 ± 0.0071	0.003 ± 0.0042	0.003 ± 0.024
4H:VEGFR2	0.0295 ± 0.012	-0.009 ± 0.027	0.014 ± 0.017	-0.032 ± 0.0099	0.0235 ± 0.013	0.025 ± 0.042	0.0205 ± 0.039	-0.0135 ± 0.023	-0.023 ± 0.025	0.064	0.0105 ± 0.042	0.0115 ± 0.019	0.002 ± 0.11	0.0115 ± 0.012	0.0345 ± 0.0078	0.0335 ± 0.11	0.002 ± 0.0057	-0.007 ± 0.017	-0.01 ± 0.02	0.0185 ± 0.018
4H:CCL26/Eotaxin-3	-0.0225 ± 0.021	0.0035 ± 0.0092	-0.006 ± 0.064	0.005 ± 0.038	0.0005 ± 0.016	-0.0035 ± 0.013	0 ± 0.042	-0.006 ± 0.0042	-0.033 ± 0.0042	-0.118	-0.001 ± 0.0085	-0.023 ± 0.018	0.0115 ± 0.04	0.007 ± 0.013	0.0605 ± 0.018	-0.0045 ± 0.029	0.0075 ± 0.018	-0.0085 ± 0.011	-0.0305 ± 0.011	0.0185 ± 0.025
3C:Proliferation	-0.064 ± 0.045	-0.003 ± 0.069	-0.026 ± 0.071	0 ± 0.064	-0.0725 ± 0.035	-0.0005 ± 0.032	-0.0475 ± 0.03	-0.0395 ± 0.018	-0.054 ± 0.028	-0.194	-0.005 ± 0.078	-0.0085 ± 0.073	-0.0135 ± 0.021	-0.0035 ± 0.083	0.094 ± 0.17	-0.0725 ± 0.052	0.0205 ± 0.00071	0.0395 ± 0.032	0.0005 ± 0.044	-0.0925 ± 0.059
BE3C:CXCL8/IL-8	0.0165 ± 0.043	0.0285 ± 0.011	0.0695 ± 0.16	0.0165 ± 0.066	-0.0195 ± 0.0092	0.0135 ± 0.044	0.0735 ± 0.029	0.029 ± 0.042	-0.026 ± 0.061	-0.034	0.0435 ± 0.042	0.0355 ± 0.061	-0.021 ± 0.0085	0.0095 ± 0.015	-0.021 ± 0.092	0.0015 ± 0.0064	0.0585 ± 0.019	-0.0545 ± 0.069	-0.577 ± 0.023	-0.009 ± 0.061
MyoF:PAI-I	-0.0105 ± 0.033	-0.0035 ± 0.021	0.0065 ± 0.00071	0.0015 ± 0.00071	-0.027 ± 0.035	-0.005 ± 0.013	0.001 ± 0.0028	0.0015 ± 0.0064	-0.0075 ± 0.013	0.021	0.0015 ± 0.0064	0.003 ± 0.038	-0.003 ± 0.0085	-0.022 ± 0.02	0.001 ± 0.0085	-0.003 ± 0.016	0.0005 ± 0.025	0.0035 ± 0.012	0.0205 ± 0.025	0.0045 ± 0.011

Limited to level (log10) [12] (two entries from above):
Test System | level (log10) [12]
4H:VEGFR2 | 0.0335 ± 0.11
4H:CCL26/Eotaxin-3 | -0.0045 ± 0.029
